Counter-ions that a name gives are not always drawn. The list shows a part of the results. The calls rarely recur for the same compound in another form.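 In K562 cells expressing nanoluciferase-fused kinases, luminescence was recorded at 4 h intervals between 2 and 18 h, normalized as percent of control with DMSO at 100% and a positive control at 0%. A significant (2 sigma) signal drop marks a time point as decreased. The authors' rule for a hit is not shown and takes in more than the number of time points.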
biological target: LCK (UniProt P06239); assay: kinase-Nluc reporter destabilization hit call (1 = scored as downregulated) (binary); higher = compound decreases kinase abundance; settings: 2.5 µM; K562; 2-18 h

By UniProt entry, the sequences of proteins in these tests, tags left out. Where a name states a change or a piece, a line headed by the entry shows the natural chain unless it says otherwise.
UniProt P06239: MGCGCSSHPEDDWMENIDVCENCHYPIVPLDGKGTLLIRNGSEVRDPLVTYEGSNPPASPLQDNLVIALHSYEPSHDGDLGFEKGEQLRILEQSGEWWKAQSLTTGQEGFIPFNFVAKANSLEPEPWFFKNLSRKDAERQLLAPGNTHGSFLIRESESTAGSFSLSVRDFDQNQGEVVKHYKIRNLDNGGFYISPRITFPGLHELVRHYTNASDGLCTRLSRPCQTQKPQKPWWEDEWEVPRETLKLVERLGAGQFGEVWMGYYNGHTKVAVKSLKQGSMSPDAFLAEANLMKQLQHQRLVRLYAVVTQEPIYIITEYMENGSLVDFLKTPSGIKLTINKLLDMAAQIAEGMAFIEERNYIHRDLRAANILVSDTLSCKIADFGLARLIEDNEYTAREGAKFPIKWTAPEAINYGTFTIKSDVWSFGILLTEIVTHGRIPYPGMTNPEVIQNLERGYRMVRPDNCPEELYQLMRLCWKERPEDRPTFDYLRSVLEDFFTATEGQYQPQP
UniProt P53667: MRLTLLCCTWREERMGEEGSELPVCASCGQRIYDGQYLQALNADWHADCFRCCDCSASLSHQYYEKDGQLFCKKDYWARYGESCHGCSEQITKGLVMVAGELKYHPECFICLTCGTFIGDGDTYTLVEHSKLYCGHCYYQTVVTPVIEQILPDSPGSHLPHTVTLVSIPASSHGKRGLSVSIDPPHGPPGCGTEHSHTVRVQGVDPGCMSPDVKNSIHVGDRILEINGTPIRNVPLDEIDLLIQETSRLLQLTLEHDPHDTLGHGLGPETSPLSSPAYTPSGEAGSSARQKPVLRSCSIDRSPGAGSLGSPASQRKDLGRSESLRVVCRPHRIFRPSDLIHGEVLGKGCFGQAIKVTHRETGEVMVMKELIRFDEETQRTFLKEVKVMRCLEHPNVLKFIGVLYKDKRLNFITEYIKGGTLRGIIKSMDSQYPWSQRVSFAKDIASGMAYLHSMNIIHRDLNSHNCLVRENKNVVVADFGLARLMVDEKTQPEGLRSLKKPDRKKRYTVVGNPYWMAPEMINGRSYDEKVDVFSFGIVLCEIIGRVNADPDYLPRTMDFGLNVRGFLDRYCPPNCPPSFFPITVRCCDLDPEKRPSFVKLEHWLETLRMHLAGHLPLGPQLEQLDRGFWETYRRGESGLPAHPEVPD

SMILES	kinase-Nluc reporter destabilization hit call
Nc1nc(Nc2ccc(S(N)(=O)=O)cc2)nn1C(=O)c1c(F)cccc1F	inactive: 0
Nc1ncnc2c1c(-c1cnc3[nH]ccc3c1)nn2C1CCCC1	inactive: 0
Cc1[nH]c(/C=C2\C(=O)Nc3ccc(F)cc32)c(C)c1C(=O)NC[C@H](O)CN1CCOCC1	inactive: 0
CC(=O)c1c(C)c2cnc(Nc3ccc(N4CCN(C(=O)CCCCCC(=O)N[C@H](C(=O)N5C[C@H](O)C[C@H]5C(=O)NCc5ccc(-c6scnc6C)cc5)C(C)(C)C)CC4)cn3)nc2n(C2CCCC2)c1=O	inactive: 0
CC(C)n1nc(-c2cc3cc(O)ccc3[nH]2)c2c(N)ncnc21 [Torkinib]	inactive: 0
CC1(C)C(=O)N([C@H]2CCc3c(O)cccc32)c2nc(Nc3cccc(CN4CCCC4)c3)ncc21	inactive: 0

same assay, conditions: 10 µM; K562; 2-18 h

SMILES	kinase-Nluc reporter destabilization hit call
COc1nccc(-c2c(-c3ccc(F)cc3)ncn2C2CCNCC2)n1	inactive: 0
COc1ccc(-c2c[nH]c3nccc(-c4ccsc4)c23)c(OC)c1	inactive: 0
Cc1ccc(Nc2nccc(N(C)c3ccc4c(C)n(C)nc4c3)n2)cc1S(N)(=O)=O [Pazopanib]	inactive: 0
Cc1ccc(Nc2nccc(N(C)c3ccc4c(C)n(C)nc4c3)n2)cc1S(N)(=O)=O [Pazopanib (Hydrochloride)]	inactive: 0
CC[C@@H]1C(=O)N(C)c2cnc(Nc3ccc(C(=O)NC4CCN(C)CC4)cc3OC)nc2N1C1CCCC1	inactive: 0
CC#CC(=O)N1CCC[C@H]1c1nc(-c2ccc(C(=O)Nc3ccccn3)cc2)c2c(N)nccn12 [Acalabrutinib]	inactive: 0
CC(C)N(CCC(=O)c1ccc2ccccc2c1)Cc1ccccc1	inactive: 0
Cc1cc2ncnn2cc1Nc1ncc2c(n1)n(C1CCOCC1)c(=O)n2C	inactive: 0
O=C(NCCCNc1nc(Nc2cccc(CN3CCOCC3)c2)ncc1C1CC1)C1CCC1	inactive: 0

biological target: LIMK1 (UniProt P53667); assay: as above; settings: 2.5 µM; K562; 2-18 h

SMILES	kinase-Nluc reporter destabilization hit call
Nc1nc(Nc2ccc(S(N)(=O)=O)cc2)nn1C(=O)c1c(F)cccc1F	inactive: 0
CCOc1cc2ncc(C#N)c(Nc3ccc(F)c(Cl)c3)c2cc1NC(=O)/C=C/CN(C)C [Pelitinib]	inactive: 0
Nc1ncnc2c1c(-c1cnc3[nH]ccc3c1)nn2C1CCCC1	inactive: 0
CCN(CC)CCNC(=O)c1c(C)[nH]c(/C=C2\C(=O)Nc3ccc(F)cc32)c1C [Sunitinib]	inactive: 0
C=CC(=O)Nc1cc2c(Nc3ccc(F)c(Cl)c3)ncnc2cc1OCCCN1CCOCC1 [Canertinib (dihydrochloride)]	inactive: 0
Cc1[nH]c(/C=C2\C(=O)Nc3ccc(F)cc32)c(C)c1C(=O)NC[C@H](O)CN1CCOCC1	inactive: 0
Cc1cc(Nc2cc(N3CCN(C)CC3)nc(/C=C/c3ccccc3)n2)n[nH]1 [ENMD-2076 (Tartrate)]	inactive: 0
O=C(Nc1cccc(Nc2nccc(Nc3cccc(C(F)(F)F)c3)n2)c1)C1CC1 [Aurora kinase inhibitor-3]	inactive: 0
CN1CCN(c2ccc3nc(-c4c(N)c5c(F)cccc5[nH]c4=O)[nH]c3c2)CC1 [Dovitinib]	inactive: 0
O=C1NCCc2[nH]c(-c3ccncc3)cc21	inactive: 0
CC1(C)CNc2cc(NC(=O)c3cccnc3NCc3ccncc3)ccc21 [Motesanib (Diphosphate)]	inactive: 0
CC(=O)c1c(C)c2cnc(Nc3ccc(N4CCN(C(=O)CCCCCC(=O)N[C@H](C(=O)N5C[C@H](O)C[C@H]5C(=O)NCc5ccc(-c6scnc6C)cc5)C(C)(C)C)CC4)cn3)nc2n(C2CCCC2)c1=O	inactive: 0
COc1cc2/c(=N/c3ccc(Br)cc3F)nc[nH]c2cc1OCC1CCN(C)CC1 [Vandetanib]	inactive: 0
CC(C)n1nc(-c2cc3cc(O)ccc3[nH]2)c2c(N)ncnc21 [Torkinib]	inactive: 0
Cc1nc(Nc2ncc(C(=O)Nc3c(C)cccc3Cl)s2)cc(N2CCN(CCO)CC2)n1 [Dasatinib]	inactive: 0
CC1(C)C(=O)N([C@H]2CCc3c(O)cccc32)c2nc(Nc3cccc(CN4CCCC4)c3)ncc21	inactive: 0
CNC(=O)c1cc(Oc2ccc(NC(=O)Nc3ccc(Cl)c(C(F)(F)F)c3)cc2)ccn1 [Sorafenib]	inactive: 0
CN1CCN(c2ccc3nc(-c4c(N)c5c(F)cccc5[nH]c4=O)[nH]c3c2)CC1 [Dovitinib (lactate)]	inactive: 0
CC1(C)CNc2cc(NC(=O)c3cccnc3NCc3ccncc3)ccc21 [Motesanib]	inactive: 0
Cc1cc(Nc2cc(N3CCN(C)CC3)nc(/C=C/c3ccccc3)n2)n[nH]1	inactive: 0

same assay, conditions: 10 µM; K562; 2-18 h

SMILES	kinase-Nluc reporter destabilization hit call
COc1nccc(-c2c(-c3ccc(F)cc3)ncn2C2CCNCC2)n1	inactive: 0
COc1ccc(-c2c[nH]c3nccc(-c4ccsc4)c23)c(OC)c1	inactive: 0
C[C@@]1(C(=O)Nc2ccc(F)nc2)CCCN1c1nc(Nc2cc(C3CC3)n[nH]2)c2cccn2n1	inactive: 0
Cc1cc2c(F)c(Oc3ncnn4cc(OC[C@@H](C)O)c(C)c34)ccc2[nH]1 [Brivanib]	inactive: 0
N#CC(=Cc1cc(Cl)cc(Cl)c1)c1cccnc1	inactive: 0
C=CC(=O)Nc1cc2c(Nc3ccc(F)c(Cl)c3)ncnc2cc1OCCCN1CCOCC1 [Canertinib]	inactive: 0
CC(C)(C)n1nc(-c2ccc(Cl)cc2)c2c(N)ncnc21	inactive: 0
COc1cc2ncnc(Nc3ccc(F)c(Cl)c3)c2cc1OCCCN1CCOCC1 [Gefitinib]	inactive: 0
O=C(Nc1cccc(Cl)c1)Nc1ncc(CCNc2ncnc3ccsc23)s1 [SNS-314 (mesylate)]	inactive: 0
CC[C@@H]1C(=O)N(C)c2cnc(Nc3ccc(C(=O)NC4CCN(C)CC4)cc3OC)nc2N1C1CCCC1	inactive: 0
CC#CC(=O)N1CCC[C@H]1c1nc(-c2ccc(C(=O)Nc3ccccn3)cc2)c2c(N)nccn12 [Acalabrutinib]	inactive: 0
O=S(=O)(c1cccc2c(O)nccc12)N1CCCNCC1 [Hydroxyfasudil (hydrochloride)]	inactive: 0
O=C1Cc2c([nH]c3ccc(Br)cc23)-c2ccccc2N1 [Kenpaullone]	inactive: 0
O=S(=O)(c1cccc2c(O)nccc12)N1CCCNCC1 [Hydroxyfasudil]	inactive: 0
CC(C)N(CCC(=O)c1ccc2ccccc2c1)Cc1ccccc1	inactive: 0
O=C(NCCCNc1nc(Nc2cccc(CN3CCOCC3)c2)ncc1C1CC1)C1CCC1	inactive: 0
CNC(=O)c1cc(Oc2ccc(NC(=O)Nc3ccc(Cl)c(C(F)(F)F)c3)cc2)ccn1 [Sorafenib (Tosylate)]	inactive: 0

— the supplement of paper PMC12823440, “Inhibitors supercharge kinase turnover through native proteolytic circuits” (Nature, 2025)
